Values from PubChem BioAssay AID504764 (Drosophila RNAi Screening Center, 2011).
In all, the deposit lists about 22,000 reagents; below is a random part of those that have a named target and a result. Of all reagents, 403 (1.9%) are marked active. 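Unnormalised raw counts per well; ratio z-scores behind the hit calls and whether each hit raises or lowers signal are not deposited.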 Not stated in the record: the amount of reagent.

- Assay: 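Knock-downs that raise or lower a Notch target reporter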 (primary screen)
- Cells: Drosophila Kc167 cells
- Knock-down reagent: long dsRNA against Drosophila genes
- Duration: about 5 days (4 days dsRNA, then 24 h after transfection)
- Treatment: transfection of constitutively active membrane-tethered Notch lacking the extracellular domain, read 24 h later
- Read-out: 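Light from a Notch-responsive E(spl)m3 luciferase reporter under active Notch, with control-promoter and no-Notch reporter wells to normalise; raw counts from paired wells a and b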
- Direction: induced reporter light, run 1, well a and induced reporter light, run 1, well b: higher = more light from the Notch target reporter with active Notch; control promoter light, run 1, well a and control promoter light, run 1, well b: higher = more light from the viral control promoter (cell number, transfection, viability); uninduced reporter light, run 1, well a: higher = more light from the Notch target reporter without active Notch
- Hit rule: 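Hit if the duplicate-averaged log2 ratio of induced to control-promoter light gives a plate-wise z beyond ±2, or induced to uninduced beyond ±1.8; weak-control or discordant-duplicate wells dropped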
- Calls: active = modifier hit (raised or lowered Notch signal); inactive = not a hit

{"target":"CG11929","induced reporter light, run 1, well a":1.43e5,"induced reporter light, run 1, well b":1.10e5,"control promoter light, run 1, well a":2.11e5,"control promoter light, run 1, well b":1.92e5,"uninduced reporter light, run 1, well a":8878,"call":"active"}
{"target":"Spt5","induced reporter light, run 1, well a":58860,"induced reporter light, run 1, well b":62550,"control promoter light, run 1, well a":62415,"control promoter light, run 1, well b":71125,"uninduced reporter light, run 1, well a":6635,"call":"inactive"}
{"target":"CG16903","induced reporter light, run 1, well a":70785,"induced reporter light, run 1, well b":78415,"control promoter light, run 1, well a":87910,"control promoter light, run 1, well b":84355,"uninduced reporter light, run 1, well a":4570,"call":"active"}
{"target":"CG13144","induced reporter light, run 1, well a":1.28e5,"induced reporter light, run 1, well b":1.50e5,"control promoter light, run 1, well a":70265,"control promoter light, run 1, well b":87365,"uninduced reporter light, run 1, well a":19640,"call":"inactive"}
{"target":"CG31287","induced reporter light, run 1, well a":1.56e5,"induced reporter light, run 1, well b":1.28e5,"control promoter light, run 1, well a":1.97e5,"control promoter light, run 1, well b":1.69e5,"uninduced reporter light, run 1, well a":8855,"call":"inactive"}
{"target":"Ublcp1","induced reporter light, run 1, well a":1.50e5,"induced reporter light, run 1, well b":1.76e5,"control promoter light, run 1, well a":1.79e5,"control promoter light, run 1, well b":2.18e5,"uninduced reporter light, run 1, well a":12935,"call":"inactive"}
{"target":"Eb1","induced reporter light, run 1, well a":2.09e5,"induced reporter light, run 1, well b":2.22e5,"control promoter light, run 1, well a":2.02e5,"control promoter light, run 1, well b":2.19e5,"uninduced reporter light, run 1, well a":14540,"call":"inactive"}
{"target":"Pi4KIIIalpha (Phosphatidylinositol 4-kinase III alpha)","induced reporter light, run 1, well a":1.33e5,"induced reporter light, run 1, well b":1.42e5,"control promoter light, run 1, well a":1.94e5,"control promoter light, run 1, well b":2.16e5,"uninduced reporter light, run 1, well a":10085,"call":"inactive"}

In a second layout: entries from further up.
target	induced reporter light, run 1, well a	induced reporter light, run 1, well b	control promoter light, run 1, well a	control promoter light, run 1, well b	uninduced reporter light, run 1, well a	call
Spt5	58860	62550	62415	71125	6635	inactive
CG16903	70785	78415	87910	84355	4570	active

More entries follow:
{"target":"CG2017","induced reporter light, run 1, well a":1.02e5,"induced reporter light, run 1, well b":97580,"control promoter light, run 1, well a":75420,"control promoter light, run 1, well b":76165,"uninduced reporter light, run 1, well a":9245,"call":"inactive"}
{"target":"lectin-37Da","induced reporter light, run 1, well a":50095,"induced reporter light, run 1, well b":35555,"control promoter light, run 1, well a":46640,"control promoter light, run 1, well b":37460,"uninduced reporter light, run 1, well a":2015,"call":"inactive"}
{"target":"ATP8 (retired record)","induced reporter light, run 1, well a":82305,"induced reporter light, run 1, well b":1.02e5,"control promoter light, run 1, well a":1.37e5,"control promoter light, run 1, well b":1.38e5,"uninduced reporter light, run 1, well a":9695,"call":"inactive"}
{"target":"CG14427","induced reporter light, run 1, well a":1.79e5,"induced reporter light, run 1, well b":1.76e5,"control promoter light, run 1, well a":4.22e5,"control promoter light, run 1, well b":3.23e5,"uninduced reporter light, run 1, well a":12175,"call":"inactive"}
{"target":"Polr2B (RNA polymerase II subunit B)","induced reporter light, run 1, well a":23825,"induced reporter light, run 1, well b":19830,"control promoter light, run 1, well a":17305,"control promoter light, run 1, well b":17160,"uninduced reporter light, run 1, well a":3035,"call":"inactive"}
{"target":"CG9839","induced reporter light, run 1, well a":1.09e5,"induced reporter light, run 1, well b":1.03e5,"control promoter light, run 1, well a":76685,"control promoter light, run 1, well b":80300,"uninduced reporter light, run 1, well a":9810,"call":"inactive"}
{"target":"Exo84 (Exocyst 84)","induced reporter light, run 1, well a":1.12e5,"induced reporter light, run 1, well b":1.46e5,"control promoter light, run 1, well a":1.78e5,"control promoter light, run 1, well b":1.91e5,"uninduced reporter light, run 1, well a":10690,"call":"inactive"}
{"target":"AdipoR (Adiponectin receptor)","induced reporter light, run 1, well a":1.74e5,"induced reporter light, run 1, well b":1.54e5,"control promoter light, run 1, well a":2.18e5,"control promoter light, run 1, well b":2.39e5,"uninduced reporter light, run 1, well a":14960,"call":"inactive"}
{"target":"Oct-TyrR (Octopamine-Tyramine receptor)","induced reporter light, run 1, well a":1.07e5,"induced reporter light, run 1, well b":1.38e5,"control promoter light, run 1, well a":1.23e5,"control promoter light, run 1, well b":1.25e5,"uninduced reporter light, run 1, well a":8065,"call":"inactive"}
{"target":"CG14195","induced reporter light, run 1, well a":73380,"induced reporter light, run 1, well b":77760,"control promoter light, run 1, well a":99695,"control promoter light, run 1, well b":1.04e5,"uninduced reporter light, run 1, well a":10992,"call":"inactive"}
